Assay results published in patent US20230052369A1.
These are yes or no findings as the source states them, for the method shown. A result given as binding can be weak or reduced; the word gives no strength.

Experiments:
[1] = molecular target: SEC-purified Cyno 4-1BB-His (cynomolgus); test: SPR, Ab captured, cyno 4-1BB-His injected
[2] = molecular target: purified human monomeric 4-1BB (human); test: SPR

binding [1]: binds
binding [2]: binds
B1: v28684 (antibody, human IgG1, kappa, L234A L235A, V domains shown)
VH: EVQLVESGGGLVQPGGSLRLSCAASGFTFSEFGMHWVRQAPGKGLEWVSYISSGGSTIYYADSVKGRFTISRDNAKNSLYLQMNSLRAEDTAVYYCARDWVDYWGQGTLVTVSS
VL: EIVLTQSPATLSLSPGERATLSCKASENVGSYVSWYQQKPGQAPRLLIYGASNRYTGVPARFSGSGSGTDFTLTISSLEPEDFAVYYCGQSYSYPLTFGGGTKVEIKR
